Test results reported in patent publication US20120179089A1, “SUBSTITUTED BIPYRIDINES FOR USE IN ORGANIC LIGHT-EMITTING DEVICES” (Nitto Denko Corporation, priority 2010, published 2012).
At least one structure is not confirmed: it was looked up by name or label, or the drawing left a doubt.

Tested on: actinic keratoses
Test: Phototherapy of actinic keratoses lesions with red light emitting OLED
Conditions: 16.8% topical cream; lesions illuminated with red OLED of Example 13

## COC(=O)CCC(=O)CN.Cl [methyl aminolevulinate, Methyl aminolevulinate]
  number or severity of the lesions: reduced
